Reference: US20190328766A1, “COMPOSITIONS AND METHODS FOR SUPPRESSING MSUT2” (United States Government As Represented By The Department …, published 2019)
Results are given in words; binding and its absence hold for the method and conditions named. Binding seen in cells or lysates may run through a third protein. Some binding calls cover weakened binding; strength is not graded here. Tags and fused reporters may be left off the sequences shown.

Experiments:
[1] = biological target: T1, 35S radiolabeled PABPN1 (human) (UniProt Q86U42); test: in vitro GST pulldown (restated)
T1 sequence (35S radiolabel (in vitro translated), looked up): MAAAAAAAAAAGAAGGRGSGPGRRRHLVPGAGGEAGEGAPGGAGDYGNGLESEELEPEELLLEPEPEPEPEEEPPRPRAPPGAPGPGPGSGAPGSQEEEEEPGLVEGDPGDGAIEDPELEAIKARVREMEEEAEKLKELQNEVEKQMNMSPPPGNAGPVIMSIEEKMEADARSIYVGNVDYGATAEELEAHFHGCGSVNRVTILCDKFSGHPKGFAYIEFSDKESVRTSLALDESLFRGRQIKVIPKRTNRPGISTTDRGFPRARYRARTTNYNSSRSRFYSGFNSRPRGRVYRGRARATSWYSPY

[2] = biological target: T1, 35S radiolabeled PABPN1 (human); test: GST pulldown, recombinant human proteins
[3] = biological target: T1, 35S radiolabeled PABPN1 (human); test: GST pulldown, 35S-labeled PABPN1, RNAse pretreated

Measured: binding

B1: recombinant GST-MSUT2 Zinc Finger (ZF) fusion protein (protein, human, UniProt Q6PJT7 595-736, looked up, not shown: a dimerising Fc or GST)
chain: EKLLERCKYWPACKNGDECAYHHPISPCKAFPNCKFAEKCLFVHPNCKYDAKCTKPDCPFTHVSRRIPVLSPKPAVAPPAPPSSSQLCRYFPACKKMECPFYHPKHCRFNTQCTRPDCTFYHPTINVPPRHALKWIRPQTSE
binds: all assays above
